From article PMC9217950
Results are given in words; binding and its absence hold for the method and conditions named. Binding seen in cells or lysates may run through a third protein. These calls come from enrichment with a bait or labelling near it, and not all partners need be listed. For part of these data: No binding means not detected with the bait. For part of these data: Tags and fused reporters may be left off the sequences shown.

Sequences of proteins named here, by UniProt entry; tags and fusion partners are left off. A change or cut given only in a name is not applied to a line headed by its entry.
UniProt P19474: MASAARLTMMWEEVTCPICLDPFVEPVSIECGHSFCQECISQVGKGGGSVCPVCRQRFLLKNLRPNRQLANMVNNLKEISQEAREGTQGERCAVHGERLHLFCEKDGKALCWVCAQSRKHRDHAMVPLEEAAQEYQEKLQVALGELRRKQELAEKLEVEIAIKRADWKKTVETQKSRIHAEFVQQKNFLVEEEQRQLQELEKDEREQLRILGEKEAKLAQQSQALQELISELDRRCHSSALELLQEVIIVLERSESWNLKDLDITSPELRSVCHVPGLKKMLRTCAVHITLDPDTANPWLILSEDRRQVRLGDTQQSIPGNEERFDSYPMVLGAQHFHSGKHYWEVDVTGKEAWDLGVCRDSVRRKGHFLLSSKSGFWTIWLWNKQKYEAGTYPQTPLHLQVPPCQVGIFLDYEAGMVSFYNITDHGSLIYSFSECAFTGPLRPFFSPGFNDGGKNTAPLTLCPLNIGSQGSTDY
UniProt O14965: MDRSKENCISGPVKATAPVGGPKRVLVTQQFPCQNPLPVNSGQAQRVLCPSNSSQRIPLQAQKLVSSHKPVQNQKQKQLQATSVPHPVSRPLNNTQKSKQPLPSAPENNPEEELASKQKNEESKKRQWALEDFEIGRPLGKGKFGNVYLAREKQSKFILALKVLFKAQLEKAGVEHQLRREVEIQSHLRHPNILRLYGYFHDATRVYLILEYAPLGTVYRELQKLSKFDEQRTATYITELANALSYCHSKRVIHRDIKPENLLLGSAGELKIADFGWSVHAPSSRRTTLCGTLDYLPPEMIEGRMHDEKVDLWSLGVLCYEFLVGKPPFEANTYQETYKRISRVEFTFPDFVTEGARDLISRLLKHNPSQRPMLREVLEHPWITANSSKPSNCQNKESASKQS
UniProt Q9UJQ4: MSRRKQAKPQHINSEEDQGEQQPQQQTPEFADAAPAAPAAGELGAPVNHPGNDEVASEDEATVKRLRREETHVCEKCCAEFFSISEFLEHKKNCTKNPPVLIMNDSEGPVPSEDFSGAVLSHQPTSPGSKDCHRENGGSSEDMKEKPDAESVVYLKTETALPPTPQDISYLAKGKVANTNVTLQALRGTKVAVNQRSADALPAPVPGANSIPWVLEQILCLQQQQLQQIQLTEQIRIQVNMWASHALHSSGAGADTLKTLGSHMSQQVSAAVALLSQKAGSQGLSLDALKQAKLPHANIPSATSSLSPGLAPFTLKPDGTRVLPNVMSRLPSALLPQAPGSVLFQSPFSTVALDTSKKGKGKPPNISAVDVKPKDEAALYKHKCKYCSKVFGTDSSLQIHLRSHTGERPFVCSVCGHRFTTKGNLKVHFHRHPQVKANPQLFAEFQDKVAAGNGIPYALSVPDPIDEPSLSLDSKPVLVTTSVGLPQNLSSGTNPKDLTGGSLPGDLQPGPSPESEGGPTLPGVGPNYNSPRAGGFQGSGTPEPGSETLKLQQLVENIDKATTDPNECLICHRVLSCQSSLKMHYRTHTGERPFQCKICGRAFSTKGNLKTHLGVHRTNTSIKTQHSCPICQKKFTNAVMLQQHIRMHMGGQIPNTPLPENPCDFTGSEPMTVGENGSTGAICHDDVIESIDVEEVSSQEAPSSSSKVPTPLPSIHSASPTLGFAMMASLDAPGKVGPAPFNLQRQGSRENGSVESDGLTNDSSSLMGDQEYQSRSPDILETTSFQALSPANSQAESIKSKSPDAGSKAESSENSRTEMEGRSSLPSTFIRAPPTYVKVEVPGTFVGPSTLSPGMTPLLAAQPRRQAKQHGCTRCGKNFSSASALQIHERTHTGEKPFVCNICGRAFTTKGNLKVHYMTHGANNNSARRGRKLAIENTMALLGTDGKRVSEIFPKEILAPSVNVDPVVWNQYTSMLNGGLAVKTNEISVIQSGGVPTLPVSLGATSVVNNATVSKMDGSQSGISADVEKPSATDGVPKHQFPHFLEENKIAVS
UniProt P25440: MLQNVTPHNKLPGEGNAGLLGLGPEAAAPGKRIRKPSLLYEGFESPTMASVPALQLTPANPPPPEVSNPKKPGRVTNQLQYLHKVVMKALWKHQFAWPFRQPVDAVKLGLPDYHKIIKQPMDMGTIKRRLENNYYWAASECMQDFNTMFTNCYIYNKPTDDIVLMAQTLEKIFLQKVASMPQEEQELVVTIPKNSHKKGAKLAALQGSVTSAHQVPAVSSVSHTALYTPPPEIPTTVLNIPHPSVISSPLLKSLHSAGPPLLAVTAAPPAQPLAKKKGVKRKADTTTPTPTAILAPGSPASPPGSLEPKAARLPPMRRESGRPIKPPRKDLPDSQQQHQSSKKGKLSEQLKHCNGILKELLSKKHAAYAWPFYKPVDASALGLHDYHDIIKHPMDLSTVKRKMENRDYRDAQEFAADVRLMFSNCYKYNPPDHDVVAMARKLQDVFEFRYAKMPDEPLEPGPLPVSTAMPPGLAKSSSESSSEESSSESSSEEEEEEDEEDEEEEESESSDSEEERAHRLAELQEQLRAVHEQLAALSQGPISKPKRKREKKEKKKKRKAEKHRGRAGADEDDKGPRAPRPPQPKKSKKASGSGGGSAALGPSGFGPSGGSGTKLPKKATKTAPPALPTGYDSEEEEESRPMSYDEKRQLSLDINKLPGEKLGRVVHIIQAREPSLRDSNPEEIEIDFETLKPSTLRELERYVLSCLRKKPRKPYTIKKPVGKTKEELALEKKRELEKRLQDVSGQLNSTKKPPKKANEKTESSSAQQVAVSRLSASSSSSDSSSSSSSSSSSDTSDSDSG
UniProt Q15059: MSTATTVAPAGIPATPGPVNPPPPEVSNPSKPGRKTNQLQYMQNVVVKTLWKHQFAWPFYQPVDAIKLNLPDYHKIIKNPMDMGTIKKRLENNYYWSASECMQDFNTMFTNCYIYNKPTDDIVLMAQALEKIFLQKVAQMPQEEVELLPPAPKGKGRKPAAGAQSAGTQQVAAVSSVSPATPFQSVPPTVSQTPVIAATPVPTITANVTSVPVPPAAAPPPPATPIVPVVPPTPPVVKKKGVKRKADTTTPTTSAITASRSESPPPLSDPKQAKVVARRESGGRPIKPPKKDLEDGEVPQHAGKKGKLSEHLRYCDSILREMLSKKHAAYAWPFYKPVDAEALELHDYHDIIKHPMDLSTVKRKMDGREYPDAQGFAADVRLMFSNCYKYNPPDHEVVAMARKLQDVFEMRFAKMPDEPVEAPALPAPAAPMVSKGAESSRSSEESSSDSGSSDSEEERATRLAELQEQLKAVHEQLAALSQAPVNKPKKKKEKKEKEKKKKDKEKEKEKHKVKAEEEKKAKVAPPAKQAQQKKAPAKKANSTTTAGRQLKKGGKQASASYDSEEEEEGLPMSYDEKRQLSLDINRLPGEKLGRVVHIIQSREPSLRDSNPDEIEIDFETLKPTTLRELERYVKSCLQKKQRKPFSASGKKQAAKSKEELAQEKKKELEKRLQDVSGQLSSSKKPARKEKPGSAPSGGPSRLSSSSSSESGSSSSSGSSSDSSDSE
UniProt P25963: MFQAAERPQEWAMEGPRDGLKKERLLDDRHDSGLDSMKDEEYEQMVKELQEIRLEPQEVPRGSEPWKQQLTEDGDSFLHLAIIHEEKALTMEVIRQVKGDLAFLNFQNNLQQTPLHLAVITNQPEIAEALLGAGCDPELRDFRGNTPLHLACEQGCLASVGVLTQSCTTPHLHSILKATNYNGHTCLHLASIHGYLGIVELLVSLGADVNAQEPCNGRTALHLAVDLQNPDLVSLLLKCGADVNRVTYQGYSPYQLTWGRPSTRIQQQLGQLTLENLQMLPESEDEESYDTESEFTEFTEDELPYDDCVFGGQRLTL
UniProt Q96SW2: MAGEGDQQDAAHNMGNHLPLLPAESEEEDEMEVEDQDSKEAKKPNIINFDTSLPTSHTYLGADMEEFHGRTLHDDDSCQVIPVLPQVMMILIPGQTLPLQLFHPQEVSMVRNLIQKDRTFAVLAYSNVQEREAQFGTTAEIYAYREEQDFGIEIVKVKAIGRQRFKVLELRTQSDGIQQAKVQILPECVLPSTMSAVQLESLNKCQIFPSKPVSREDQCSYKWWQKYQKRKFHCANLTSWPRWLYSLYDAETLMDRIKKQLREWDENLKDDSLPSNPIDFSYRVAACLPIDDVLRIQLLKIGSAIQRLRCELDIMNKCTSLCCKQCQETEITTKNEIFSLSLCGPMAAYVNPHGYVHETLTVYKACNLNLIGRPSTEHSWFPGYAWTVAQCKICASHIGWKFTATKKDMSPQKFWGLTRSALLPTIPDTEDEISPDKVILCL
UniProt Q96J77: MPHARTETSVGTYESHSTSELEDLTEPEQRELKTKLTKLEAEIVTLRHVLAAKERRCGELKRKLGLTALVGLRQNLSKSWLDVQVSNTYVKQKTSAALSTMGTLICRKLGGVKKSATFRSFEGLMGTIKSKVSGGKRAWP

What was measured:
FLAG-GST-TRIM21 (human) = FLAG-GST-TRIM21 (human) (UniProt P19474); assay: proximity labelling; CF-PPiD on the diversity protein array: 118 FG-tagged human proteins on glutathione magnetic beads, 1536-well plate, 1x and 3x dual spots; translational mixture of AirID, AirID-TP53 or AirID-IκBα with biotin and ATP; HRP-conjugated anti-biotin antibody; only the target purified
[1] = target: FLAG-GST-AURKA (STK15) (human) (UniProt O14965); assay: as above
FLAG-GST-LATS2 (human) = target: T1, FLAG-GST-LATS2 (human) (UniProt Q9NRM7); assay: as above
T1 sequence: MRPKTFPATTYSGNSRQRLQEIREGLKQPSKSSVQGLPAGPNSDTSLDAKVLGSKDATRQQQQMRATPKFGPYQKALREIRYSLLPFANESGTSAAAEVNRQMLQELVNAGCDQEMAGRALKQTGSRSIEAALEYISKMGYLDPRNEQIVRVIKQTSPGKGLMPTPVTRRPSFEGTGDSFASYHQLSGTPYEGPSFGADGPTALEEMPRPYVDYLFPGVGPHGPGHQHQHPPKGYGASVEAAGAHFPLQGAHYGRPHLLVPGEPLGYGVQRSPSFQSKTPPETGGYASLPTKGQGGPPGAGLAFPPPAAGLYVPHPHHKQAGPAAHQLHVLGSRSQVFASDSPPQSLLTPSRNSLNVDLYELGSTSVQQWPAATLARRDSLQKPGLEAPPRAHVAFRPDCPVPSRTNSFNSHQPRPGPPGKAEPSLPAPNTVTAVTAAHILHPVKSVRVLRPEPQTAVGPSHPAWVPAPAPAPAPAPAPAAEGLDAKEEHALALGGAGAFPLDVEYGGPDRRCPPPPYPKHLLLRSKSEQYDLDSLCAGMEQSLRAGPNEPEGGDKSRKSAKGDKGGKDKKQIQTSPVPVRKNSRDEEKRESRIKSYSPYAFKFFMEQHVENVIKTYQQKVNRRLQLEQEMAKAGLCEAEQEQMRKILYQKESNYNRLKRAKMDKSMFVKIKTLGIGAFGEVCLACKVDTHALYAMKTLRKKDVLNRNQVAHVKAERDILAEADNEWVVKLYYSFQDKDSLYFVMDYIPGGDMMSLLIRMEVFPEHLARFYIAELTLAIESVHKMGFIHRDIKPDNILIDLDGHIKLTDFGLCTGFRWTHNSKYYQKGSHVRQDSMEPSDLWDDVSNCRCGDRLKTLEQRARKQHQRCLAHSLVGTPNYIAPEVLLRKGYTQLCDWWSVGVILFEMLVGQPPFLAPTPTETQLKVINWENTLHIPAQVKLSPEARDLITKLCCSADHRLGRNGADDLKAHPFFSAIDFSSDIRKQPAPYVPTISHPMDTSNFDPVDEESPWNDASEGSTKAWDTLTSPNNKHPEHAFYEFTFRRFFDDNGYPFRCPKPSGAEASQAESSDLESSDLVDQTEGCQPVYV

FLAG-GST-SALL4 (human) [2] = target: FLAG-GST-SALL4 (human) (UniProt Q9UJQ4); assay: proximity labelling; CF-PPiD on the magnetic plate with pomalidomide; FG-proteins captured on beads, AirID-fused protein in translational mixture; only the target purified
FLAG-GST-BRD2 (human) [3] = target: FLAG-GST-BRD2 (human) (UniProt P25440); assay: proximity labelling; CF-PPiD on the magnetic plate with DMSO (no compound); FG-proteins captured on beads, AirID-fused protein in translational mixture; only the target purified
FLAG-GST-BRD3 (human) [4] = target: FLAG-GST-BRD3 (human) (UniProt Q15059); assay: as above
FLAG-GST-SALL4 (human) [5] = target: FLAG-GST-SALL4 (human) (UniProt Q9UJQ4); assay: as above
FLAG-GST-BRD2 (human) [6] = target: FLAG-GST-BRD2 (human) (UniProt P25440); assay: proximity labelling; CF-PPiD on the magnetic plate with the PROTAC ARV-825; FG-proteins captured on beads, AirID-fused protein in translational mixture; only the target purified
FLAG-GST-BRD3 (human) [7] = target: FLAG-GST-BRD3 (human) (UniProt Q15059); assay: as above
FLAG-GST-SALL4 (human) [8] = target: FLAG-GST-SALL4 (human) (UniProt Q9UJQ4); assay: as above
FLAG-GST-SALL4 (human) [9] = target: FLAG-GST-SALL4 (human) (UniProt Q9UJQ4); assay: proximity labelling; CF-PPiD on the magnetic plate with 5-hydroxypomalidomide (5HP); FG-proteins captured on beads, AirID-fused protein in translational mixture; only the target purified
AGIA-AirID-IκBα (human) = AGIA-AirID-IκBα (human) (UniProt P25963); assay: proximity labelling; in HEK293T cells stably expressing AGIA-AirID-IκBα, transfected 24 h, 50 µM D-biotin 2 h; lysis in 1% SDS, boiled; streptavidin bead pull-down (STA-PDA), anti-FLAG immunoblot

AirID N-terminally fused to IκBα (from UniProt P25963 1-317) (other; other documents disagree on this pair)
binding (FLAG-GST-TRIM21 (human)): no binding

AirID N-terminally fused to TP53 (from UniProt P04637 1-393)
binding [1]: binds | binding (FLAG-GST-LATS2 (human)): no binding

AirID-CRBN-Y384A/W386A mutant (from UniProt Q96SW2 1-442)
binding (FLAG-GST-SALL4 (human) [2]): no binding | binding (FLAG-GST-BRD2 (human) [3]): no binding | binding (FLAG-GST-BRD3 (human) [4]): no binding | binding (FLAG-GST-SALL4 (human) [5]): no binding | binding (FLAG-GST-BRD2 (human) [6]): no binding | binding (FLAG-GST-BRD3 (human) [7]): no binding | binding (FLAG-GST-SALL4 (human) [8]): no binding | binding (FLAG-GST-SALL4 (human) [9]): no binding

TPD52L3 in pCAGGS-MCS-FLAG (from UniProt Q96J77 1-140)
binding (AGIA-AirID-IκBα (human)): binds
